# Primary screen of a compound library

Data taken from ChEMBL document CHEMBL3988442, “University of Dundee, Small-Polar-MMV Screening Library” (2021).

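Assay of Toxoplasma gondii numbers, read through their beta-galactosidase reporter with a colour substrate. Concentration: 50 µM. The record gives no direction; the compounds picked for IC50 retests had high values, so higher reads as fewer parasites. Of about 18,000 compounds tested this way, about 170 (0.94%) reached 50% or more in at least one test.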

Results are given as percent effect. How 0% and 100% were set is not recorded. Most values in the screen are low, and negative values occur. Compounds were drawn at random from those tested, without regard to their results.

| # | structure | Percent Effect |
|---|---|---|
| 1 | `CN1CCC(C(=O)NC2CCOCC2)CC1=O` (centres unmarked) | -17.37 |
| 2 | `COCCNC(C)(CO)C1CCCCC1` (centres unmarked) | 7.858 |
| 3 | `CCOC(=O)CNS(=O)(=O)c1c(C)ccc2nsnc12` | 0.2164 |
| 4 | `Cc1ccc(-c2cnnc(N)n2)cc1` | -13.22 |
| 5 | `CN(C)C(=O)CCNCCn1cccn1` | -4.325 |
| 6 | `CC(c1nc(C(C)(C)C)no1)N1CCN(CCO)CC1` (centres unmarked) | -6.361 |
| 7 | `Cc1ncncc1C(=O)N1CCC2(CCO2)CC1` | -11.95 |
| 8 | `CS(=O)(=O)c1cnc(N)c(Cl)c1` | -13.35 |
| 9 | `C=C(C)CN(C)C(CO)c1ccc(OC)cc1` (centres unmarked) | 8.458 |
| 10 | `Cc1nc(N)ncc1C(=O)NC(C)c1cn(C)nc1C` (centres unmarked) | 4.916 |
| 11 | `Nc1ncc(C(F)F)cc1Br` | 1.744 |
| 12 | `Cc1nc(C)c(CN2CC3(CCNCC3)OC2=O)s1` | -5.089 |
| 13 | `CN(C)S(=O)(=O)NCC(O)c1cccc(C(F)(F)F)c1` (centres unmarked) | 2.973 |
| 14 | `COc1cccc2c1N(CC(=O)N1CCC1)CCC2` | -0.7135 |
| 15 | `Cc1nc(C(=O)NCC2(N(C)C)CCOCC2)cs1` | 5.129 |
| 16 | `COCCn1nc(C(=O)Nc2cc(C)on2)ccc1=O` | -2.706 |
| 17 | `CS(=O)(=O)N(CC(=O)N1CCCC1)c1ccc(Cl)cc1` | -4.432 |
| 18 | `CCCc1nnc(NC2CCN(C(=O)OCC)CC2)o1` | 0.1038 |
| 19 | `Cc1cc(S(=O)(=O)NCCN)ccc1F` | -4.268 |
| 20 | `N[C@@H]1C[C@H]1c1cccc(F)c1F` | -2.948 |
| 21 | `O=C1c2ccc(F)cc2C(=O)N1Cc1ccccn1` | -3.473 |
| 22 | `CN(C)Cc1ccc(C(=O)NCC2(C)COC2)cc1` | 20.17 |
| 23 | `CCc1cc(C#N)ccc1NC(=O)N[C@@H]1CCCNC1` | 1.35 |
| 24 | `Cn1cc(C(C)(O)CNc2cccc(F)c2C#N)cn1` (centres unmarked) | 9.64 |
| 25 | `CCOC(=O)c1ccccc1N1C(=O)C=CC1=O` | -12.65 |
| 26 | `CCS(=O)(=O)NCCNC(=O)c1ccc(C)nc1` | 2.075 |
| 27 | `CCCNC(=O)Nc1ccc(N2CCOCC2)nc1` | 0.8065 |
| 28 | `NC(=O)CN1CCC(NS(=O)(=O)c2cccs2)CC1` | -30.75 |
| 29 | `CCc1nnc(SCC(N)=O)o1` | -24.93 |
| 30 | `c1ccc(-c2cc[nH]n2)nc1` | -7.989 |
| 31 | `CC(C)N1CCCC(N(C)CC(C)(CO)CO)C1=O` (centres unmarked) | -5.557 |
| 32 | `Cc1ncccc1NS(=O)(=O)CCc1ccccc1` | 5.393 |
| 33 | `N#CC1=NCc2ccccc2N1` | -19.12 |
| 34 | `Cn1ccnc1C(N)c1ccccc1F` (centres unmarked) | 0 |
| 35 | `CCC(CC)C(=O)N1C[C@@H](CO)[C@H](N(C)C)C1` | 16.3 |
| 36 | `CCNC(=O)C(C)OC(=O)c1[nH]c(C)c(C(C)=O)c1C` (centres unmarked) | -0.2195 |
| 37 | `CCCC(=O)Nc1cc(C(=O)OC)cc(C(=O)OC)c1` | -1.672 |
| 38 | `Cc1cc(C)cc(C(=O)N2CCC3(CC2)OCCO3)c1` | 2.019 |
| 39 | `NC1CCC(=O)NC1` (centres unmarked) | -9.913 |
| 40 | `CC1(c2ccccc2)CNCCO1` (centres unmarked) | -3.982 |
| 41 | `O=C(Cc1ccccc1F)NCCNc1ncccn1` | 10.74 |
| 42 | `NC1CCN(C2CCSCC2)CC1` | 10.03 |
| 43 | `COCC(=O)N(C)Cc1cc(Br)cs1` | 0.297 |
| 44 | `Cc1nc(C)c(C(=O)N2CC[C@H](CO)[C@H](O)C2)s1` | 4.393 |
| 45 | `CCNC1CCCc2cccnc21` (centres unmarked) | 37.71 |
| 46 | `CN1CCC(Sc2nnc(-c3cccs3)o2)C1=O` (centres unmarked) | 1.717 |
| 47 | `CC(C)CCNC(=O)CCn1cc(Br)ccc1=O` | 4.113 |
| 48 | `O=c1cc(CO)nc2ccccn12` | 2.458 |
| 49 | `CC(C)(C)NCCNC(=O)CC1(O)CCCC1` | -7.316 |
| 50 | `CN(C(=O)NCCCOC1CCOC1)C1CCC1` (centres unmarked) | 3.778 |
| 51 | `Cc1ccnc(CCO)n1` | -3.979 |
| 52 | `O=C(CC1C=CCC1)N1CCN(Cc2ccco2)CC1` (centres unmarked) | -11.58 |
| 53 | `CN1CCC(N(C)C(=O)CC(C)(C)C)CC1` | 24.81 |
| 54 | `CNc1ncccc1OC` | -6.881 |
| 55 | `CCC1(O)CN(S(=O)(=O)c2ncn(C)c2Cl)C1` | 4.782 |
| 56 | `O=C(c1cc(Cl)c[nH]c1=O)N(Cc1nccs1)C1CC1` | 11.02 |
| 57 | `OC[C@@H]1CNC[C@H]1C1CCN(C2CCOCC2)CC1` | 2.921 |
| 58 | `CC(C)c1cc(C(=O)N[C@@H]2CCOC[C@H]2O)cs1` | -9.753 |
| 59 | `Cc1ccc(CC(=O)N2CCN(CCO)CC2)cc1C` | 3.234 |
| 60 | `Cc1[nH]c2ccc(C(N)=O)cc2c1C` | -4.822 |
| 61 | `CCC(=O)Nc1ccc(N2CCN(C)CC2)cc1C` | 2.966 |
| 62 | `CCN(Cc1ccoc1)C(=O)Nc1cccnc1OC` | 4.501 |
| 63 | `COc1ccc(CCSc2nnc[nH]2)cc1` | -8.318 |
| 64 | `O=C(NCC1CCOC1)c1cc2c([nH]c1=O)CCC2` (centres unmarked) | -1.21 |
| 65 | `CC(C)n1cc(C(=O)N2C[C@@H]3CCCN[C@@H]3C2)cn1` | 12.88 |
| 66 | `O=C(NCc1ccco1)Nc1nc2c(s1)COCC2` | -18.08 |
| 67 | `O=C1CC(N2CCN(Cc3ccccc3)CC2)C(=O)N1` (centres unmarked) | 4.484 |
| 68 | `COc1cccc([C@H]2C[C@H](N)C2)c1` | -18.42 |
| 69 | `N#CC1CN(C(=O)c2c(F)cccc2Br)CCO1` (centres unmarked) | 3.607 |
| 70 | `Cn1c(CO)cnc1S(=O)(=O)Cc1ccc(F)cc1` | -4.473 |
| 71 | `COCCCNCc1ccc(OC)cc1` | -1.218 |
| 72 | `N#CCCN(CCC#N)Cc1cccc2c1OCO2` | 2.911 |
| 73 | `O=c1cc(C2CCC2)nc[nH]1` | 3.039 |
| 74 | `CC1C(=O)NCCN1C(=O)c1cc(-c2ccco2)on1` (centres unmarked) | 0.5841 |